Experimental data taken from patent US20260274892A1 (RQx Pharmaceuticals, Inc., priority 2017, published 2026).

Assay: peptide synthesis
[1] = late stage modification step, formic acid salt
[2] = late stage modification step, FA salt

Q: With “rac-(8S,11S,14S)-3,18-bis(2- aminoethoxy)-N-(cyanomethyl)-11- methyl-14-[methyl-[rac-(2S)-4- amino-2-[[2-(4-tert-butoxyphenyl)- 4-methyl-pyrimidine-5- carbonyl]amino]butanoyl]amino]- 10,13-dioxo-9,12- diazatricyclo[13.3.1.12,6]icosa- 1(18),2(20),3,5,15(19),16-hexaene- 8-carboxamide” as the substance, how does the step yield [1] read?
A: 67% yield

Q: For “rac-(8S,11S,14S)- 4,18-bis(2- aminoethoxy)-3- hydroxy-11-methyl- 14-[methyl-[rac- (2S)-4-amino-2-[[2- (4-tert-butylphenyl)- 4,6-dimethyl- pyrimidine-5- carbonyl]amino] butanoyl]amino]- 10,13-dioxo-9,12- diazatricyclo [13.3.1.12,6]icosa- 1(18),2,4,6(20),15(19), 16-hexaene-8- carboxylic acid”, which step yield [2] is on record?
A: 98.1%

Q: Which step yield (late stage modification step, over three steps from compound 603-3, TFA salt) does the source give for “rac-(8S,11S,14S)-N-(cyanomethyl)- 18-[2-(ethanimidoylamino)ethoxy]- 3-hydroxy-11-methyl-14-[methyl- [rac-(2S)-4-amino-2-[[2-(4-tert- butylphenyl)-4,6-dimethyl- pyrimidine-5- carbonyl]amino]butanoyl]amino]- 10,13-dioxo-9,12- diazatricyclo[13.3.1.12,6]icosa- 1(18),2(20),3,5,15(19),16-hexaene- 8-carboxamide” here?
A: 16% yield over three steps

Q: For “rac-(8S,11S,14S)-N-(cyanomethyl)- 3,18-bis[2-(dimethylamino)ethoxy]- 11-methyl-14-[methyl-[rac-(2S)-4- amino-2-[[2-(4-tert-butylphenyl)-4- methyl-pyrimidine-5- carbonyl]amino]butanoyl]amino]- 10,13-dioxo-9,12- diazatricyclo[13.3.1.12,6]icosa- 1(18),2(20),3,5,15(19),16-hexaene- 8-carboxamide”, which step yield [1] is on record?
A: 23%

Q: For “rac-(8S,11S,14S)-5,18-bis(2- aminoethoxy)-N-(cyanomethyl)-3- hydroxy-11-methyl-14-[methyl-[rac- (2S)-2-[[2-(4-tert-butylphenyl)-4,6- dimethyl-pyrimidine-5- carbonyl]amino]-3- (sulfamoylamino)propanoyl]amino]- 10,13-dioxo-9,12- diazatricyclo[13.3.1.12,6]icosa- 1(18),2(20),3,5,15(19),16-hexaene- 8-carboxamide”, which step yield [2] is on record?
A: 5.9% yield

Q: For “(4S,7S,10S)-10-((S)-4-amino-2-(2-(4-(tert-butyl)phenyl)-4,6-dimethylpyrimidine-5-carboxamido)-N-methylbutanamido)-25-(2-aminoethoxy)-N-(cyanomethyl)-16,26-dihydroxy-7-methyl-6,9-dioxo-5,8-diaza-1,2(1,3)-dibenzenacyclodecaphane-4-carboxamide”, which step yield [2] is on record?
A: 47.1%

Q: For “methyl (4S,7S,10S)-10-((S)-4-(((benzyloxy)carbonyl)amino)-2-((tert-butoxycarbonyl)amino)-N-methylbutanamido)-25-(2-(((benzyloxy)carbonyl)amino)ethoxy)-16,26-dimethoxy-7-methyl-6,9-dioxo-5,8-diaza-1,2(1,3)-dibenzenacyclodecaphane-4-carboxylate”, which step yield (coupling step, FA salt) is on record?
A: 85.4%
